From paper PMC11362597
No constants are given. Whether binding was seen depends on the method and setting. Binding seen in cells or lysates may run through a third protein. A yes stands for co-enrichment or nearness to the bait. Other partners may have been found.

T1: endogenous ARHGAP25 (human (endogenous in neutrophilic granulocytes)) (UniProt P42331)
T1 sequence: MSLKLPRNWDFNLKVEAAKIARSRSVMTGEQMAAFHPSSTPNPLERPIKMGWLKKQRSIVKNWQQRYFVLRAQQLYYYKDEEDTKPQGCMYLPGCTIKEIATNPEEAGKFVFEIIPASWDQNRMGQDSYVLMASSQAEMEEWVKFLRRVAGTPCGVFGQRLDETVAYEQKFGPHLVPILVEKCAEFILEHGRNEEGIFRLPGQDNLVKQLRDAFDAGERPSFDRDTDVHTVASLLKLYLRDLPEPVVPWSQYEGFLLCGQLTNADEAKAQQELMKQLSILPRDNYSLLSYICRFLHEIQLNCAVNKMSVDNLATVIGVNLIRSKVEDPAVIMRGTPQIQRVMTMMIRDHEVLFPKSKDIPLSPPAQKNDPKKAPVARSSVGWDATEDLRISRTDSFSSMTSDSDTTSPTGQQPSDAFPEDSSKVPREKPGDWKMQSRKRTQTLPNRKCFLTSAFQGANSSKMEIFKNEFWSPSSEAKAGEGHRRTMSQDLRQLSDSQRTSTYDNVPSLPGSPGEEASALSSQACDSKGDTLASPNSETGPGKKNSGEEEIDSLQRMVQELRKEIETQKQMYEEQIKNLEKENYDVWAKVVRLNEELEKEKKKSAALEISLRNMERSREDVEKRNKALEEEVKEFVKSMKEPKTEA


Legend:
[1] = molecular target: GST-fused recombinant ARHGAP25 (human) (UniProt P42331); assay: affinity purification with mass spectrometry; GST-ARHGAP25 (control: GST) on glutathione agarose beads incubated with intact total lysate of human neutrophilic granulocytes, 45 min, 4 °C; washed thrice with PBST; eluted by boiling in Laemmli buffer; LC-MS/MS, label-free quantification; only the target purified
[2] = molecular target: T1, endogenous ARHGAP25 (human (endogenous in neutrophilic granulocytes)); assay: affinity purification with mass spectrometry; co-immunoprecipitation of endogenous ARHGAP25: magnetic beads coated with polyclonal ARHGAP25 antibody (control: rabbit IgG) incubated with intact total neutrophil lysate, 45 min, 4 °C; washed thrice with PBST; eluates measured by mass spectrometry

Binder	binding [1]	binding [2]
ARAP1 (protein, UniProt Q96P48 1-1450) MAEAGDAALSVAEWLRALHLEQYTGLFEQHGLVWATECQGLSDTRLMDMGMLLPGHRRRILAGLLRAHTSPAPAPRPTPRPVPMKRHIFRSPPVPATPPEPLPTTTEDEGLPAAPPIPPRRSCLPPTCFTTPSTAAPDPVLPPLPAKRHLAELSVPPVPPRTGPPRLLVSLPTKEEESLLPSLSSPPQPQSEEPLSTLPQGPPQPPSPPPCPPEIPPKPVRLFPEFDDSDYDEVPEEGPGAPARVMTKKEEPPPSRVPRAVRVASLLSEGEELSGDDQGDEEEDDHAYEGVPNGGWHTSSLSLSLPSTIAAPHPMDGPPGGSTPVTPVIKAGWLDKNPPQGSYIYQKRWVRLDTDHLRYFDSNKDAYSKRFISVACISHVAAIGDQKFEVITNNRTFAFRAESDVERKEWMQALQQAMAEQRARARLSSAYLLGVPGSEQPDRAGSLELRGFKNKLYVAVVGDKVQLYKNLEEYHLGIGITFIDMSVGNVKEVDRRSFDLTTPYRIFSFSADSELEKEQWLEAMQGAIAEALSTSEVAERIWAAAPNRFCADCGAPQPDWASINLCVVICKRCAGEHRGLGAGVSKVRSLKMDRKVWTETLIELFLQLGNGAGNRFWAANVPPSEALQPSSSPSTRRCHLEAKYREGKYRRYHPLFGNQEELDKALCAAVTTTDLAETQALLGCGAGINCFSGDPEAPTPLALAEQAGQTLQMEFLRNNRTTEVPRLDSMKPLEKHYSVVLPTVSHSGFLYKTASAGKLLQDRRAREEFSRRWCVLGDGVLSYFENERAVTPNGEIRASEIVCLAVPPPDTHGFEHTFEVYTEGERLYLFGLESAEQAHEWVKCIAKAFVPPLAEDLLARDFERLGRLPYKAGLSLQRAQEGWFSLSGSELRAVFPEGPCEEPLQLRKLQELSIQGDSENQVLVLVERRRTLYIQGERRLDFMGWLGAIQKAAASMGDTLSEQQLGDSDIPVIVYRCVDYITQCGLTSEGIYRKCGQTSKTQRLLESLRQDARSVHLKEGEQHVDDVSSALKRFLRDLPDGLFTRAQRLTWLEASEIEDEEEKVSRYRELLVRLPPVNRATVKALISHLYCVQCFSDTNQMNVHNLAIVFGPTLFQTDGQDYKAGRVVEDLINHYVVVFSVDEEELRKQREEITAIVKMRVAGTASGTQHAGDFICTVYLEEKKAETEQHIKVPASMTAEELTLEILDRRNVGIREKDYWTCFEVNEREEAERPLHFAEKVLPILHGLGTDSHLVVKKHQAMEAMLLYLASRVGDTKHGMMKFREDRSLLGLGLPSGGFHDRYFILNSSCLRLYKEVRSQRPWSGAPETSHRPEKEWPIKSLKVYLGVKKKLRPPTCWGFTVVHETEKHEKQQWYLCCDTQMELREWFATFLFVQHDGLVWPSEPSRVSRAVPEVRLGSVSLIPLRGSENEMRRSVAAFTADPLSLLRNV	binds	–
ACSL1 (protein, UniProt P33121 1-698) MQAHELFRYFRMPELVDFRQYVRTLPTNTLMGFGAFAALTTFWYATRPKPLKPPCDLSMQSVEVAGSGGARRSALLDSDEPLVYFYDDVTTLYEGFQRGIQVSNNGPCLGSRKPDQPYEWLSYKQVAELSECIGSALIQKGFKTAPDQFIGIFAQNRPEWVIIEQGCFAYSMVIVPLYDTLGNEAITYIVNKAELSLVFVDKPEKAKLLLEGVENKLIPGLKIIVVMDAYGSELVERGQRCGVEVTSMKAMEDLGRANRRKPKPPAPEDLAVICFTSGTTGNPKGAMVTHRNIVSDCSAFVKATENTVNPCPDDTLISFLPLAHMFERVVECVMLCHGAKIGFFQGDIRLLMDDLKVLQPTVFPVVPRLLNRMFDRIFGQANTTLKRWLLDFASKRKEAELRSGIIRNNSLWDRLIFHKVQSSLGGRVRLMVTGAAPVSATVLTFLRAALGCQFYEGYGQTECTAGCCLTMPGDWTAGHVGAPMPCNLIKLVDVEEMNYMAAEGEGEVCVKGPNVFQGYLKDPAKTAEALDKDGWLHTGDIGKWLPNGTLKIIDRKKHIFKLAQGEYIAPEKIENIYMRSEPVAQVFVHGESLQAFLIAIVVPDVETLCSWAQKRGFEGSFEELCRNKDVKKAILEDMVRLGKDSGLKPFEQVKGITLHPELFSIDNGLLTPTMKAKRPELRNYFRSQIDDLYSTIKV	binds	binds
ALOX5AP (protein, UniProt P20292 1-161) MDQETVGNVVLLAIVTLISVVQNGFFAHKVEHESRTQNGRSFQRTGTLAFERVYTANQNCVDAYPTFLAVLWSAGLLCSQVPAAFAGLMYLFVRQKYFVGYLGERTQSTPGYIFGKRIILFLFLMSVAGIFNYYLIFFFGSDFENYIKTISTTISPLLLIP	binds	–
MAP2K3 (protein, UniProt P46734 1-347) MESPASSQPASMPQSKGKSKRKKDLRISCMSKPPAPNPTPPRNLDSRTFITIGDRNFEVEADDLVTISELGRGAYGVVEKVRHAQSGTIMAVKRIRATVNSQEQKRLLMDLDINMRTVDCFYTVTFYGALFREGDVWICMELMDTSLDKFYRKVLDKNMTIPEDILGEIAVSIVRALEHLHSKLSVIHRDVKPSNVLINKEGHVKMCDFGISGYLVDSVAKTMDAGCKPYMAPERINPELNQKGYNVKSDVWSLGITMIEMAILRFPYESWGTPFQQLKQVVEEPSPQLPADRFSPEFVDFTAQCLRKNPAERMSYLELMEHPFFTLHKTKKTDIAAFVKEILGEDS	binds	binds
CAPG (protein, UniProt P40121 1-348) MYTAIPQSGSPFPGSVQDPGLHVWRVEKLKPVPVAQENQGVFFSGDSYLVLHNGPEEVSHLHLWIGQQSSRDEQGACAVLAVHLNTLLGERPVQHREVQGNESDLFMSYFPRGLKYQEGGVESAFHKTSTGAPAAIKKLYQVKGKKNIRATERALNWDSFNTGDCFILDLGQNIFAWCGGKSNILERNKARDLALAIRDSERQGKAQVEIVTDGEEPAEMIQVLGPKPALKEGNPEEDLTADKANAQAAALYKVSDATGQMNLTKVADSSPFALELLISDDCFVLDNGLCGKIYIWKGRKANEKERQAALQVAEGFISRMQYAPNTQVEILPQGHESPIFKQFFKDWK	binds	–

More lines, now with the values ahead:

binding [1]	binding [2]	Binder
binds	binds	PPM1F (protein, UniProt P49593 1-454) MSSGAPQKSSPMASGAEETPGFLDTLLQDFPALLNPEDPLPWKAPGTVLSQEEVEGELAELAMGFLGSRKAPPPLAAALAHEAVSQLLQTDLSEFRKLPREEEEEEEDDDEEEKAPVTLLDAQSLAQSFFNRLWEVAGQWQKQVPLAARASQRQWLVSIHAIRNTRRKMEDRHVSLPSFNQLFGLSDPVNRAYFAVFDGHGGVDAARYAAVHVHTNAARQPELPTDPEGALREAFRRTDQMFLRKAKRERLQSGTTGVCALIAGATLHVAWLGDSQVILVQQGQVVKLMEPHRPERQDEKARIEALGGFVSHMDCWRVNGTLAVSRAIGDVFQKPYVSGEADAASRALTGSEDYLLLACDGFFDVVPHQEVVGLVQSHLTRQQGSGLRVAEELVAAARERGSHDNITVMVVFLRDPQELLEGGNQGEGDPQAEGRRQDLPSSLPEPETQAPPRS
binds	binds	NCF4 (protein, UniProt Q15080 1-339) MAVAQQLRAESDFEQLPDDVAISANIADIEEKRGFTSHFVFVIEVKTKGGSKYLIYRRYRQFHALQSKLEERFGPDSKSSALACTLPTLPAKVYVGVKQEIAEMRIPALNAYMKSLLSLPVWVLMDEDVRIFFYQSPYDSEQVPQALRRLRPRTRKVKSVSPQGNSVDRMAAPRAEALFDFTGNSKLELNFKAGDVIFLLSRINKDWLEGTVRGATGIFPLSFVKILKDFPEEDDPTNWLRCYYYEDTISTIKDIAVEEDLSSTPLLKDLLELTRREFQREDIALNYRDAEGDLVRLLSDEDVALMVRQARGLPSQKRLFPWKLHITQKDNYRVYNTMP
binds	binds	YWHAH (protein, UniProt Q04917 1-246) MGDREQLLQRARLAEQAERYDDMASAMKAVTELNEPLSNEDRNLLSVAYKNVVGARRSSWRVISSIEQKTMADGNEKKLEKVKAYREKIEKELETVCNDVLSLLDKFLIKNCNDFQYESKVFYLKMKGDYYRYLAEVASGEKKNSVVEASEAAYKEAFEISKEQMQPTHPIRLGLALNFSVFYYEIQNAPEQACLLAKQAFDDAIAELDTLNEDSYKDSTLIMQLLRDNLTLWTSDQQDEEAGEGN
